{"source": "patent US20140227408A1", "about": "“MEAT TREATMENT AND PRESERVATION METHOD” (RED MEAT AS, priority 2011, published 2014)", "key": {"myoglobin in ground beef [1]": {"test_system": "myoglobin in ground beef", "assay": "Myoglobin states (DMb, OMb, MMb) by reflectance spectra of treated ground beef, high oxygen packaging (Example 5)", "parameters": "species or system cattle", "source_text": "(§1) Beef M. semimembranosus (M.S.) and beef fat tissue were collected four days post mortem (Fatland A/S, Oslo, Norway). The packaging day is defined as day zero, however, the tissues were 4 days post mortem on packing day. A piece of meat from proximal end was cut from each muscle in order to measure oxygen consumption, pH and surface colour. Fat tissue from pigs fed rapeseed and vitamin E to enhance the content of polyunsaturated fatty acids were from HKScan (Ruokatalo, Finland). The fat tissue was transported vacuum-packaged and frozen. Samples of minced fat tissue were removed for fatty acid analysis.\n(§2) The beef muscles were cut into pieces of approximately 10×5 cm and mixed to 14% w/w fat by using the fat tissues. Beef fat and pork fat tissues were ground twice with either raw beef from four young (16-19 months) or four old (46-81 months) cattle. […]\n(§3) Samples were scanned, […], with a Foss NIRSystems OptiProbe™ 6500 Analyzer (Foss NIRSystems Inc., Maryland, USA) without opening of the package. […] Thirty-two scans for both reference and samples were acquired and averaged on each measured area. […]\n(§4) The colour of the samples packaged in high O2 was measured after 0, 1, 3, 6 and 8, days of storage from packaging day, while low O2 samples were measured at 0 to 13 days of storage using Minolta and reflectance measurements. […]"}, "[2]": {"assay": "Colour (b*, a*) of minced beef mixed with test brines, stored in low-oxygen MAP (Examples 1-2)", "parameters": "species or system cattle", "conditions": "for b*: low oxygen (MAP), day 6 of storage, amount 1 = 0.1 mol per kg meat", "method": "(§5) Beef fat and pork fat (high degree of unsaturation) were used with raw semimembranosus muscle from young and old cattle. Beef from the hind leg was removed, weighed, chopped, mixed with fat (14% by weight), and the various test compounds were added to the minced meat. The mixtures were packed into boxes and sealed with plastic sheeting. Packing was done with MAP to yield a low-oxygen atmosphere (60% CO2 and 40% N2) and also under a high-oxygen atmosphere (75% oxygen and 25% CO2). The samples were stored in darkness at 4° C. from 0 to 8 days for the high-oxygen atmosphere and 0 to 13 days for the MAP samples. A Cheers Packaging Machine (Promens) was used for packaging of samples. Triplicate reference samples with only 40 ml of distilled water mixed and packaged as described above were evaluated at days 6 and 8 for the high-oxygen environment and at days 6, 8, 10 and 13 for the MAP environment.\n(§6) Samples of test compounds were prepared with succinate, glutamate, malate, pyruvate and citrate in different combinations, either as single chemicals or as mixtures. The acid and conjugate base of each active component was added in the appropriate ratio to provide the solutions (brines) with a pH of 5.8. As will be clear from the foregoing description, the “succinate” used in this experiment was a combination of succinic acid and sodium succinate. The “glutamate”, “malate”, etc. were used equivalently.\n(§7) Meat and fat was cut into small pieces and minced (3 mm holes). 40 g of brine was added to 360 g mince and packed in the plastic packing.\n(§8) Several variables were included in the design of the experiment, using a 2^3 factorial design. […] Malate and glutamate were considered together in the design and analysis, but their ratio was varied in the experiments from pure malate to pure glutamate.\n(§9) Colour changes in the samples were measured with a FOSS NIRSystems™ 6500 analyser and a Konica Minolta Chroma meter CR 410 (Konica Minolta Sensing Inc., Osaka, Japan). Colour was measured using the parameters L*, a* and b* at 0, 1, 3, 6 and 8 days for samples stored in 75% oxygen. Colour changes of the samples packaged in MAP were measured at 0, 1, 3, 6, 8, 10 and 13 days of storage time.\nResults from the experiments carried out on the various meat and fat samples are shown below in Tables 1 to 8. Values given for the amount of active agents in Tables 1 to 8 correspond to the molar proportion of the given agent within the brine/meat mixture, where a value of 1 corresponds to 0.1 moles active agent per kg of meat, a value of 0.5 corresponds to 0.05 mol/kg, etc. […] The b* values, which are considered to be most representative of the colour changes in the meat being tested, are shown. All results correspond to measurements made on day 6 of storage\nThe data from the experiment described in Example 1 were analyzed using an ANOVA model with all main effect and second and higher order effects according to the method described in Langsrud, Ø. (“50-50 Multivariate Analysis of Variance for Collinear Responses” The Statistician (2002) 51, pp. 305-317). […] The mixture design was fractional."}, "[3]": {"assay": "Colour L*, a*, b* of treated ground beef, low oxygen packaging (Example 5)", "parameters": "species or system cattle", "source_text": "as §1, §2\n(§10) The colour of the ground meat samples was measured with a Konica Minolta Chroma Meter CR 410 (Konica Minolta Sensing Inc., Osaka, Japan) using the glass light projection tube CR A 33e with wide illumination area (61 mm) and illuminant D65. […]\nas §4"}, "myoglobin in ground beef [4]": {"test_system": "myoglobin in ground beef", "assay": "Myoglobin states (DMb, OMb, MMb) by reflectance spectra of treated ground beef, low oxygen packaging (Example 5)", "parameters": "species or system cattle", "source_text": "as §1, §2, §3, §4"}, "[5]": {"assay": "Colour (b*) of minced beef mixed with test brines, stored in high-oxygen atmosphere (Example 1)", "parameters": "species or system cattle", "conditions": "day 6 of storage, amount 1 = 0.1 mol per kg meat", "method": "as §5, §6, §7, §8, §9\nResults from the experiments carried out on the various meat and fat samples are shown below in Tables 1 to 8. Values given for the amount of active agents in Tables 1 to 8 correspond to the molar proportion of the given agent within the brine/meat mixture, where a value of 1 corresponds to 0.1 moles active agent per kg of meat, a value of 0.5 corresponds to 0.05 mol/kg, etc. […]\nThe data from the experiment described in Example 1 were analyzed using an ANOVA model with all main effect and second and higher order effects according to the method described in Langsrud, Ø. […]"}, "[6]": {"assay": "Colour L*, a*, b* of treated ground beef, high oxygen packaging (Example 5)", "parameters": "species or system cattle", "source_text": "as §1, §2, §10, §4"}, "[7]": {"test_system": "permeabilised tissue from M. semimembranosus (mitochondrial complexes I and II)", "assay": "Oxygen consumption rate by high-resolution respirometry on permeabilized muscle fibres", "format": "biochemical, cattle", "conditions": "results not shown"}, "[8]": {"conditions": "old beef muscle mixed with beef fat"}, "[9]": {"conditions": "old beef muscle mixed with pork fat"}, "[10]": {"conditions": "young beef muscle mixed with pork fat"}}, "note": "At least one compound was matched to its structure with a doubt left."}
{"smiles": "CC(=O)C(=O)O", "note": "[pyruvate 1.00, pyruvate]", "values": [{"measurement": "effect on myoglobin states (DMb, OMb, MMb), in words", "setting": "myoglobin in ground beef [1]", "value": "favored MMb"}, {"measurement": "a*", "setting": "[2]; low-oxygen environment, zero citrate, after 6 days storage, relative amounts of succinate, pyruvate, glutamate + malate", "value": 5.76}, {"measurement": "b*", "setting": "[2]; [8]", "value": 3.00}, {"measurement": "b*", "setting": "[2]; [9]", "value": 3.67}, {"measurement": "b*", "setting": "[2]; young beef muscle mixed with beef fat, 4° C.", "value": 4.24}, {"measurement": "b*", "setting": "[2]; [10]", "value": 3.93}, {"measurement": "effect on redness (a*), in words", "setting": "[3]", "value": "did not improve redness (a*)"}, {"measurement": "effect on yellowness (b*), in words", "setting": "[3]", "value": "promoted increased yellowness"}, {"measurement": "effect on myoglobin states (DMb, OMb, MMb), in words", "setting": "myoglobin in ground beef [4]", "value": "increased OMb and MMb formation"}, {"measurement": "b*", "setting": "[5]; [8]", "value": 3.58}, {"measurement": "b*", "setting": "[5]; [9]", "value": 4.08}, {"measurement": "b*", "setting": "[5]; young beef muscle mixed with beef fat", "value": 5.32}, {"measurement": "b*", "setting": "[5]; [10]", "value": 5.02}, {"measurement": "effect on redness (a*), in words", "setting": "[6]", "value": "did not improve redness (a*)"}, {"measurement": "induction of oxygen consumption, in words", "setting": "[7]", "value": "did not induce oxygen consumption"}]}
